Sequences and labels used below:
B1: ACIN1 (protein, UniProt Q9UKV3 1-1341)
chain: MWRRKHPRTSGGTRGVLSGNRGVEYGSGRGHLGTFEGRWRKLPKMPEAVGTDPSTSRKMAELEEVTLDGKPLQALRVTDLKAALEQRGLAKSGQKSALVKRLKGALMLENLQKHSTPHAAFQPNSQIGEEMSQNSFIKQYLEKQQELLRQRLEREAREAAELEEASAESEDEMIHPEGVASLLPPDFQSSLERPELELSRHSPRKSSSISEEKGDSDDEKPRKGERRSSRVRQARAAKLSEGSQPAEEEEDQETPSRNLRVRADRNLKTEEEEEEEEEEEEDDEEEEGDDEGQKSREAPILKEFKEEGEEIPRVKPEEMMDERPKTRSQEQEVLERGGRFTRSQEEARKSHLARQQQEKEMKTTSPLEEEEREIKSSQGLKEKSKSPSPPRLTEDRKKASLVALPEQTASEEETPPPLLTKEASSPPPHPQLHSEEEIEPMEGPAPAVLIQLSPPNTDADTRELLVSQHTVQLVGGLSPLSSPSDTKAESPAEKVPEESVLPLVQKSTLADYSAQKDLEPESDRSAQPLPLKIEELALAKGITEECLKQPSLEQKEGRRASHTLLPSHRLKQSADSSSSRSSSSSSSSSRSRSRSPDSSGSRSHSPLRSKQRDVAQARTHANPRGRPKMGSRSTSESRSRSRSRSRSASSNSRKSLSPGVSRDSSTSYTETKDPSSGQEVATPPVPQLQVCEPKERTSTSSSSVQARRLSQPESAEKHVTQRLQPERGSPKKCEAEEAEPPAATQPQTSETQTSHLPESERIHHTVEEKEEVTMDTSENRPENDVPEPPMPIADQVSNDDRPEGSVEDEEKKESSLPKSFKRKISVVSATKGVPAGNSDTEGGQPGRKRRWGASTATTQKKPSISITTESLKSLIPDIKPLAGQEAVVDLHADDSRISEDETERNGDDGTHDKGLKICRTVTQVVPAEGQENGQREEEEEEKEPEAEPPVPPQVSVEVALPPPAEHEVKKVTLGDTLTRRSISQQKSGVSITIDDPVRTAQVPSPPRGKISNIVHISNLVRPFTLGQLKELLGRTGTLVEEAFWIDKIKSHCFVTYSTVEEAVATRTALHGVKWPQSNPKFLCADYAEQDELDYHRGLLVDRPSETKTEEQGIPRPLHPPPPPPVQPPQHPRAEQREQERAVREQWAEREREMERRERTRSEREWDRDKVREGPRSRSRSRDRRRKERAKSKEKKSEKKEKAQEEPPAKLLDDLFRKTKAAPCIYWLPLTDSQIVQKEAERAERAKEREKRRKEQEEEEQKEREKEAERERNRQLEREKRREHSRERDRERERERERDRGDRDRDRERDRERGRERDRRDTKRHSRSRSRSTPVRDRGGRR
B2: CDC40 (protein, UniProt O60508 1-579)
chain: MSAAIAALAASYGSGSGSESDSDSESSRCPLPAADSLMHLTKSPSSKPSLAVAVDSAPEVAVKEDLETGVHLDPAVKEVQYNPTYETMFAPEFGPENPFRTQQMAAPRNMLSGYAEPAHINDFMFEQQRRTFATYGYALDPSLDNHQVSAKYIGSVEEAEKNQGLTVFETGQKKTEKRKKFKENDASNIDGFLGPWAKYVDEKDVAKPSEEEQKELDEITAKRQKKGKQEEEKPGEEKTILHVKEMYDYQGRSYLHIPQDVGVNLRSTMPPEKCYLPKKQIHVWSGHTKGVSAVRLFPLSGHLLLSCSMDCKIKLWEVYGERRCLRTFIGHSKAVRDICFNTAGTQFLSAAYDRYLKLWDTETGQCISRFTNRKVPYCVKFNPDEDKQNLFVAGMSDKKIVQWDIRSGEIVQEYDRHLGAVNTIVFVDENRRFVSTSDDKSLRVWEWDIPVDFKYIAEPSMHSMPAVTLSPNGKWLACQSMDNQILIFGAQNRFRLNKKKIFKGHMVAGYACQVDFSPDMSYVISGDGNGKLNIWDWKTTKLYSRFKAHDKVCIGAVWHPHETSKVITCGWDGLIKLWD
B3: IARS (protein, UniProt P41252 1-1262)
chain: MLQQVPENINFPAEEEKILEFWTEFNCFQECLKQSKHKPKFTFYDGPPFATGLPHYGHILAGTIKDIVTRYAHQSGFHVDRRFGWDCHGLPVEYEIDKTLGIRGPEDVAKMGITEYNNQCRAIVMRYSAEWKSTVSRLGRWIDFDNDYKTLYPQFMESVWWVFKQLYDKGLVYRGVKVMPFSTACNTPLSNFESHQNYKDVQDPSVFVTFPLEEDETVSLVAWTTTPWTLPSNLAVCVNPEMQYVKIKDVARGRLLILMEARLSALYKLESDYEILERFPGAYLKGKKYRPLFDYFLKCKENGAFTVLVDNYVKEEEGTGVVHQAPYFGAEDYRVCMDFNIIRKDSLPVCPVDASGCFTTEVTDFAGQYVKDADKSIIRTLKEQGRLLVATTFTHSYPFCWRSDTPLIYKAVPSWFVRVENMVDQLLRNNDLCYWVPELVREKRFGNWLKDARDWTISRNRYWGTPIPLWVSDDFEEVVCIGSVAELEELSGAKISDLHRESVDHLTIPSRCGKGSLHRISEVFDCWFESGSMPYAQVHYPFENKREFEDAFPADFIAEGIDQTRGWFYTLLVLATALFGQPPFKNVIVNGLVLASDGQKMSKRKKNYPDPVSIIQKYGADALRLYLINSPVVRAENLRFKEEGVRDVLKDVLLPWYNAYRFLIQNVLRLQKEEEIEFLYNENTVRESPNITDRWILSFMQSLIGFFETEMAAYRLYTVVPRLVKFVDILTNWYVRMNRRRLKGENGMEDCVMALETLFSVLLSLCRLMAPYTPFLTELMYQNLKVLIDPVSVQDKDTLSIHYLMLPRVREELIDKKTESAVSQMQSVIELGRVIRDRKTIPIKYPLKEIVVIHQDPEALKDIKSLEKYIIEELNVRKVTLSTDKNKYGIRLRAEPDHMVLGKRLKGAFKAVMTSIKQLSSEELEQFQKTGTIVVEGHELHDEDIRLMYTFDQATGGTAQFEAHSDAQALVLLDVTPDQSMVDEGMAREVINRIQKLRKKCNLVPTDEITVYYKAKSEGTYLNSVIESHTEFIFTTIKAPLKPYPVSPSDKVLIQEKTQLKGSELEITLTRGSSLPGPACAYVNLNICANGSEQGGVLLLENPKGDNRLDLLKLKSVVTSIFGVKNTELAVFHDETEIQNQTDLLSLSGKTLCVTAGSAPSLINSSSTLLCQYINLQLLNAKPQECLMGTVGTLLLENPLGQNGLTHQGLLYEAAKVFGLRSRKLKLFLNETQTQEITEDIPVKTLNMKTVYVSVLPTTADF
B4: AQR (protein, UniProt O60306 1-1485)
chain: MAAPAQPKKIVAPTVSQINAEFVTQLACKYWAPHIKKKSPFDIKVIEDIYEKEIVKSRFAIRKIMLLEFSQYLENYLWMNYSPEVSSKAYLMSICCMVNEKFRENVPAWEIFKKKPDHFPFFFKHILKAALAETDGEFSLHEQTVLLLFLDHCFNSLEVDLIRSQVQQLISLPMWMGLQLARLELELKKTPKLRKFWNLIKKNDEKMDPEAREQAYQERRFLSQLIQKFISVLKSVPLSEPVTMDKVHYCERFIELMIDLEALLPTRRWFNTILDDSHLLVHCYLSNLVRREEDGHLFSQLLDMLKFYTGFEINDQTGNALTENEMTTIHYDRITSLQRAAFAHFPELYDFALSNVAEVDTRESLVKFFGPLSSNTLHQVASYLCLLPTLPKNEDTTFDKEFLLELLVSRHERRISQIQQLNQMPLYPTEKIIWDENIVPTEYYSGEGCLALPKLNLQFLTLHDYLLRNFNLFRLESTYEIRQDIEDSVSRMKPWQSEYGGVVFGGWARMAQPIVAFTVVEVAKPNIGENWPTRVRADVTINLNVRDHIKDEWEGLRKHDVCFLITVRPTKPYGTKFDRRRPFIEQVGLVYVRGCEIQGMLDDKGRVIEDGPEPRPNLRGESRTFRVFLDPNQYQQDMTNTIQNGAEDVYETFNIIMRRKPKENNFKAVLETIRNLMNTDCVVPDWLHDIILGYGDPSSAHYSKMPNQIATLDFNDTFLSIEHLKASFPGHNVKVTVEDPALQIPPFRITFPVRSGKGKKRKDADVEDEDTEEAKTLIVEPHVIPNRGPYPYNQPKRNTIQFTHTQIEAIRAGMQPGLTMVVGPPGTGKTDVAVQIISNIYHNFPEQRTLIVTHSNQALNQLFEKIMALDIDERHLLRLGHGEEELETEKDFSRYGRVNYVLARRIELLEEVKRLQKSLGVPGDASYTCETAGYFFLYQVMSRWEEYISKVKNKGSTLPDVTEVSTFFPFHEYFANAPQPIFKGRSYEEDMEIAEGCFRHIKKIFTQLEEFRASELLRSGLDRSKYLLVKEAKIIAMTCTHAALKRHDLVKLGFKYDNILMEEAAQILEIETFIPLLLQNPQDGFSRLKRWIMIGDHHQLPPVIKNMAFQKYSNMEQSLFTRFVRVGVPTVDLDAQGRARASLCNLYNWRYKNLGNLPHVQLLPEFSTANAGLLYDFQLINVEDFQGVGESEPNPYFYQNLGEAEYVVALFMYMCLLGYPADKISILTTYNGQKHLIRDIINRRCGNNPLIGRPNKVTTVDRFQGQQNDYILLSLVRTRAVGHLRDVRRLVVAMSRARLGLYIFARVSLFQNCFELTPAFSQLTARPLHLHIIPTEPFPTTRKNGERPSHEVQIIKNMPQMANFVYNMYMHLIQTTHHYHQTLLQLPPAMVEEGEEVQNQETELETEEEAMTVQADIIPSPTDTSCRQETPAFQTDTTPSETGATSTPEAIPALSETTPTVVGAVSAPAEANTPQDATSAPEETK

In PMC4521966 one finds binding data, which are given here for four molecules.

These are yes or no findings as the source states them, for the method shown. Binding seen in cells or lysates may run through a third protein. A yes stands for co-enrichment or nearness to the bait. Other partners may have been found. Tags and fused reporters may be left off the sequences shown.

For the test, the target named is T1, C-terminal FLAG-tagged mouse WDR72 (WD repeat-containing protein 72) (mouse) (UniProt D3YYM4).
T1 sequence: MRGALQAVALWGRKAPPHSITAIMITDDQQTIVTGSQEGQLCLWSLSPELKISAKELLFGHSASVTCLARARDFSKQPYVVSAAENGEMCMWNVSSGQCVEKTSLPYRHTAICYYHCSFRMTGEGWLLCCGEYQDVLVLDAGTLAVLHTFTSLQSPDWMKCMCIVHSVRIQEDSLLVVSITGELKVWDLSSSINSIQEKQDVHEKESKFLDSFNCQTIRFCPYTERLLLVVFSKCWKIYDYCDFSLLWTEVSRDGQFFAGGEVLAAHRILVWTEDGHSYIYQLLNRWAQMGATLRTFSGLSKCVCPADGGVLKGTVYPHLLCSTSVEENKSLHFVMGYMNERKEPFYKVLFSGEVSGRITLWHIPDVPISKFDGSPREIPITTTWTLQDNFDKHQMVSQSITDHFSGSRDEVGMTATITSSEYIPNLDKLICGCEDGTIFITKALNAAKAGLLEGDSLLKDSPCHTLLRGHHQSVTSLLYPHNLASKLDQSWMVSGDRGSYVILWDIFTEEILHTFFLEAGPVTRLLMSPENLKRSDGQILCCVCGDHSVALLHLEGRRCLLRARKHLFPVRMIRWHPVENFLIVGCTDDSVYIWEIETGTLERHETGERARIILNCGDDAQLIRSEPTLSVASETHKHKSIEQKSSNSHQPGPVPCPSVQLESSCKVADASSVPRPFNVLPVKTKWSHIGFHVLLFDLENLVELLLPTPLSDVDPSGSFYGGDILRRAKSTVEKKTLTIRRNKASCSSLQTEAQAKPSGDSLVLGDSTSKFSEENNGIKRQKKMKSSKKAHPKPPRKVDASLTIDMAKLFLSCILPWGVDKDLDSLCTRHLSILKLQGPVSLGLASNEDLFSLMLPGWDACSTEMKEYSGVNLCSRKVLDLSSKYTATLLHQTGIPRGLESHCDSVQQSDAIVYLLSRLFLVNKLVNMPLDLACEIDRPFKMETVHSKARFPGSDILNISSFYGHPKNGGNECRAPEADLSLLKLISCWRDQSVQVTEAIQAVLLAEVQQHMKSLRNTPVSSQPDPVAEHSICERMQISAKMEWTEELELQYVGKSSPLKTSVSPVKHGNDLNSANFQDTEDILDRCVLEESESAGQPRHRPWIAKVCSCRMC
In words: affinity purification with mass spectrometry; C-terminal FLAG-tagged mouse WDR72 overexpressed in HEK293; NP40 lysate; anti-FLAG antibody on protein A Dynabeads, 30 min at room temperature, washed twice; six CBB-stained bands cut from the SDS-PAGE gel, trypsin, LC-MS/MS.
As for B1, the binding entry is reported as “binds”.

Take B2: the binding entry is recorded as “binds”.

Consider B3, for which the binding result is “binds”.

On to B4, for which the binding result is reported as “binds”.
